Test results from publication doi:10.1101/2023.02.23.529725.
Results are given in words; binding and its absence hold for the method and conditions named. In cells and extracts the contact can be indirect. Some entries that bind do so weakly or less than the wild type. Where a sequence is shown, tags or fusion partners need not be part of it.

Chains of the proteins cited; added tags and fusions are not shown. Residues count along the entry.
UniProt O80983, residues 54-717: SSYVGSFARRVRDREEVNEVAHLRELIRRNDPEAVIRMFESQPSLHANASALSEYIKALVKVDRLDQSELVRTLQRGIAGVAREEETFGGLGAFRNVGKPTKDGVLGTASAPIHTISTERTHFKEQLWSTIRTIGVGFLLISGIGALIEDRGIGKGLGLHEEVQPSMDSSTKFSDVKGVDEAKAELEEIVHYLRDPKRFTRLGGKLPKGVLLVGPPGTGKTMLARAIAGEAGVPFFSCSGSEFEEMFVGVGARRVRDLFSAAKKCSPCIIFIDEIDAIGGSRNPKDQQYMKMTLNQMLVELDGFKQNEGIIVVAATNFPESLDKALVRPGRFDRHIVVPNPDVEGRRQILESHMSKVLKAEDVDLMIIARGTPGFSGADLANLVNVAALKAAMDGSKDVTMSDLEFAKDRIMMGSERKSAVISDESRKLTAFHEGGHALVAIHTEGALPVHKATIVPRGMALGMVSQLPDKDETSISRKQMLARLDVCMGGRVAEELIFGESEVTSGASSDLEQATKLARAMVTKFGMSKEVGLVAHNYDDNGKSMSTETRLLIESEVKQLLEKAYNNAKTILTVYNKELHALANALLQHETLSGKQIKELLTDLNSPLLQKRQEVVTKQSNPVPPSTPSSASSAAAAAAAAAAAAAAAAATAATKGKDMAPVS
UniProt O82663, residues 33-634: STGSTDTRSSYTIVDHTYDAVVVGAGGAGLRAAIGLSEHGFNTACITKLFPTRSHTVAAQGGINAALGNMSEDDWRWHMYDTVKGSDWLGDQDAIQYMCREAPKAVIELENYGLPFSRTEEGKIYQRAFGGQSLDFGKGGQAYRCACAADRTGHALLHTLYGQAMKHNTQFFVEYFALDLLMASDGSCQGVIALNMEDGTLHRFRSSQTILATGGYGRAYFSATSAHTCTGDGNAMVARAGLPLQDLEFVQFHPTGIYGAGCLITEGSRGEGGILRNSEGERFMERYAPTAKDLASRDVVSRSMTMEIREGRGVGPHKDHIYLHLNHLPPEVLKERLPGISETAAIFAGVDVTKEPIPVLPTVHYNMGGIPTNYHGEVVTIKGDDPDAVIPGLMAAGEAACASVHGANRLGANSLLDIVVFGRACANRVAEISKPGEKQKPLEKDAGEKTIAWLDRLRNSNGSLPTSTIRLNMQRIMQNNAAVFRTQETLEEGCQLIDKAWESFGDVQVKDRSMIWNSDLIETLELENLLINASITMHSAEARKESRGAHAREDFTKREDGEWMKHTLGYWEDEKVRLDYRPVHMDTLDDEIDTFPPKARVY
UniProt Q84WU8, residues 84-809: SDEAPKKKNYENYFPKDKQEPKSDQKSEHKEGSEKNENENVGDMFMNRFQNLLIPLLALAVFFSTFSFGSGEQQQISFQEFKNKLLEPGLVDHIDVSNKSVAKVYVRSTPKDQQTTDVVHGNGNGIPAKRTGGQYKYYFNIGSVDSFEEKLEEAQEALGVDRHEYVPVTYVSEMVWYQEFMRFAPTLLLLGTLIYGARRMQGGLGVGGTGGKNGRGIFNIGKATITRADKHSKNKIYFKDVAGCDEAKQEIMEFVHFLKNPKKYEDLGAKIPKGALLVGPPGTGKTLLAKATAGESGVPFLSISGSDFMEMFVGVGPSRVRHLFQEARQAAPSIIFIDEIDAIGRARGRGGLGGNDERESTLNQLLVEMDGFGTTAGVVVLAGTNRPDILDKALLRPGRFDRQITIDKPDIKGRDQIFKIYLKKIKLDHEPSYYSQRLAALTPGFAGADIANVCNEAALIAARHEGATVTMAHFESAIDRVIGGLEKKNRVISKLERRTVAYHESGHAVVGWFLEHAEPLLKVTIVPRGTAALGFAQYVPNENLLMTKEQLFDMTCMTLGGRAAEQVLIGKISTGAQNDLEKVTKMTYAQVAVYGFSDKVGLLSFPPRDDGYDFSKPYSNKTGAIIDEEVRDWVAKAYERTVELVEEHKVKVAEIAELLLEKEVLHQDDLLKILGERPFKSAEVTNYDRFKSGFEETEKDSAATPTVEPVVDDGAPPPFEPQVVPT

T1: FLAG-tagged CI subunit B14.7 (B14.7^FLAG) (Arabidopsis (Col-0)) (UniProt O48528)
T1 sequence: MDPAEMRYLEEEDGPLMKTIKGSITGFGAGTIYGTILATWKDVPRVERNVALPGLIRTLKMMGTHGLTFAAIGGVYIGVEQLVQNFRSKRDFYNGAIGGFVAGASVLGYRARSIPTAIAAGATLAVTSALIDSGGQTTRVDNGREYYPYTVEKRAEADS


target: T1, FLAG-tagged CI subunit B14.7 (B14.7^FLAG) (Arabidopsis (Col-0)); assay: co-IP

Row | Molecule | binding
1 | FTSH4, endogenous (from UniProt O80983 54-717) (enzyme) | no binding
2 | SDH1 (complex II subunit) (from UniProt O82663 33-634) | no binding
3 | Translocase of the outer membrane TOM40 (protein, UniProt Q9LHE5 1-309) MADLLPPLTAAQVDAKTKVDEKVDYSNLPSPVPYEELHREALMSLKSDNFEGLRFDFTRALNQKFSLSHSVMMGPTEVPAQSPETTIKIPTAHYEFGANYYDPKLLLIGRVMTDGRLNARLKADLTDKLVVKANALITNEEHMSQAMFNFDYMGSDYRAQLQLGQSALIGATYIQSVTNHLSLGGEIFWAGVPRKSGIGYAARYETDKMVASGQVASTGAVVMNYVQKISDKVSLATDFMYNYFSRDVTASVGYDYMLRQARVRGKIDSNGVASALLEERLSMGLNFLLSAELDHKKKDYKFGFGLTVG | no binding

Other lines, results leading:

Row | binding | Molecule
4 | binds | FTSH3 (Filamentous Temperature Sensitive H3), endogenous (from UniProt Q84WU8 84-809) (enzyme)
5 | binds | NAD1 complex I subunit (protein, UniProt P92558 1-325) MYIAVPAEILGIILPLLLGVAFLVLAERKVMAFVQRRKGPDVVGSFGLLQPLADGLKLILKEPISPSSANFFLFRMAPVATFMLSLVAWAVVPFDYGMVLSDLNIGLLYLFAISSLGVYGIIIAGWSSISKYAFLGALRSAAQMVSYEVSIGLILITVLICVGSCNLSEIVMAQKQIWFGIPLFPVLVMFFISCLAETNRAPFDLPEAEAELVAGYNVEYSSMGFALFFLGEYANMILMSGLCTLFFLGGWLPILDLPIFKKIPGSIWFSIKVLFFLFLYIWVRAAFPRYRYDQLMGLGWKVFLPLSLARVVPVSGLLVTFQWLP
6 | no binding | COX2 (complex IV subunit) (protein, UniProt P93285 1-260) MIVLKWLFFTISPCDAAEPWQLGFQDAATPIMQGIIDLHHDIFFFLILILVFVLWILVRALWHFHYKKNAIPQRIVHGTTIEILWTIFPSIILMFIAIPSFALLYSMDEVVVDPAITIKAIGHQWYWTYEYSDYNSSDEQSLTFDSYMIPEEDLELGQLRLLEVDNRVVVPAKTHLRIIVTSADVLHSWAVPSLGVKCDAVPGRLNQISILVQREGVYYGQCSEICGTNHAFMPIVVEAVSRKDYGSWVSNQLIPQTGEA
